Where two headings read alike, the source gives them in different places. No constants are given. Whether binding was seen depends on the method and setting. Binding seen in cells or lysates may run through a third protein. A yes stands for co-enrichment or nearness to the bait. Other partners may have been found.
Assays:
Assay in all cases: proximity labelling; BioID in immortalized human podocytes expressing doxycycline-inducible BirA-Rho GTPase baits; 16 h with 1 ug/mL doxycycline (0.1 ug/mL for constitutively active mutants) and 50 uM biotin; RIPA lysis; biotinylated proteins pulled down on streptavidin beads; mass spectrometry; SAINT AvgP >= 0.95; controls empty MYC-BirA vector and BirA*-Flag-GFP
[1] = target: BirA-RhoA G14V (constitutively active RhoA) (UniProt P61586)
[2] = target: BirA-Cdc42 G15A (nucleotide-free Cdc42) (UniProt P60953)
[3] = target: BirA-Cdc42 G12V (constitutively active Cdc42) (UniProt P60953)
[4] = target: BirA-RhoA G17A (nucleotide-free RhoA) (UniProt P61586)
[5] = target: BirA-RhoA G17A (nucleotide-free RhoA) (UniProt P61586); remark: listed apart in the source
[6] = target: BirA-RhoA G14V (constitutively active RhoA) (UniProt P61586); remark: listed apart in the source
[7] = target: BirA-Cdc42 G15A (nucleotide-free Cdc42) (UniProt P60953); remark: listed apart in the source

Protein sequences, listed by entry. Tags and fused reporters are not part of them. Lines headed by an entry give the natural chain unless they say otherwise; changes in a name come on top.
UniProt P61586: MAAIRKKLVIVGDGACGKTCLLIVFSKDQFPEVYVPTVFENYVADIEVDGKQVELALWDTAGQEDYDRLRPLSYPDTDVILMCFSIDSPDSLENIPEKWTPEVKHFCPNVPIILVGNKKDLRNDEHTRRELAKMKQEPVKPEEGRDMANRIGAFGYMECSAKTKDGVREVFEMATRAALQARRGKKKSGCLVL
UniProt P60953: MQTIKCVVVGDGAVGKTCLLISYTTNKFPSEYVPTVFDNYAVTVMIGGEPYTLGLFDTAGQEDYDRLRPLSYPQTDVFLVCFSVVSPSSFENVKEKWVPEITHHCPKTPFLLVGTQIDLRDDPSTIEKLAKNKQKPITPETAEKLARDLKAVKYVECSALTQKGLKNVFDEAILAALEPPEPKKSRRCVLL
UniProt Q9NSV4: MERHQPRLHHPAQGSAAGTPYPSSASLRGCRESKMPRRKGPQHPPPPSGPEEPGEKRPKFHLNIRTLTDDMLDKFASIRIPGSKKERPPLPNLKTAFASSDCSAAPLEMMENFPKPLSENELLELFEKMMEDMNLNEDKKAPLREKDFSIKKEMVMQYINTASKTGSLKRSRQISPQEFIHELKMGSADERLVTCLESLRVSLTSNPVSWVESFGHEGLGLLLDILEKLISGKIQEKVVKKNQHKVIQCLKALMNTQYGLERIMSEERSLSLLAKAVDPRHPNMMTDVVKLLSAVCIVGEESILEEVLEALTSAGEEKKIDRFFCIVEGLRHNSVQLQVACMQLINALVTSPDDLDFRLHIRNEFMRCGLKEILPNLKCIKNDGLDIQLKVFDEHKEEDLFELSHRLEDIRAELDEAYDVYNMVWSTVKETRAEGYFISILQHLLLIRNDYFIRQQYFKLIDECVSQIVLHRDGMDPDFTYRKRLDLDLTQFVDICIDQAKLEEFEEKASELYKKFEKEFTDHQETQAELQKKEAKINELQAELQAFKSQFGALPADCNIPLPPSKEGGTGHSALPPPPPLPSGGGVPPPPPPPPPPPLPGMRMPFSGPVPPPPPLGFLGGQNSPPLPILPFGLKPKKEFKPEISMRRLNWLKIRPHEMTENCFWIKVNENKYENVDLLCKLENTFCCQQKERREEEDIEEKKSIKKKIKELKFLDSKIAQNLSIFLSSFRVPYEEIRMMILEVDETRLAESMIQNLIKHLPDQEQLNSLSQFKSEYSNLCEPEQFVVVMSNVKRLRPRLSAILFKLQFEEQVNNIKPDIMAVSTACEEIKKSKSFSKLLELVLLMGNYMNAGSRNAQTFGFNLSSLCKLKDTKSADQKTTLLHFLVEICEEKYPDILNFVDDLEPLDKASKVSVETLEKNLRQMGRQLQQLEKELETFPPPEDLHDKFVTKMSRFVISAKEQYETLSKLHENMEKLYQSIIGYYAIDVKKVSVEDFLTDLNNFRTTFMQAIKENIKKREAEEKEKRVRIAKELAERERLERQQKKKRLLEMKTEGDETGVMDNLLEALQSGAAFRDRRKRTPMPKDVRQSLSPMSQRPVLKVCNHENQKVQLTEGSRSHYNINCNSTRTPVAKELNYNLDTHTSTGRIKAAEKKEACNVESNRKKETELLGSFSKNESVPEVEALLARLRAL
UniProt O43516: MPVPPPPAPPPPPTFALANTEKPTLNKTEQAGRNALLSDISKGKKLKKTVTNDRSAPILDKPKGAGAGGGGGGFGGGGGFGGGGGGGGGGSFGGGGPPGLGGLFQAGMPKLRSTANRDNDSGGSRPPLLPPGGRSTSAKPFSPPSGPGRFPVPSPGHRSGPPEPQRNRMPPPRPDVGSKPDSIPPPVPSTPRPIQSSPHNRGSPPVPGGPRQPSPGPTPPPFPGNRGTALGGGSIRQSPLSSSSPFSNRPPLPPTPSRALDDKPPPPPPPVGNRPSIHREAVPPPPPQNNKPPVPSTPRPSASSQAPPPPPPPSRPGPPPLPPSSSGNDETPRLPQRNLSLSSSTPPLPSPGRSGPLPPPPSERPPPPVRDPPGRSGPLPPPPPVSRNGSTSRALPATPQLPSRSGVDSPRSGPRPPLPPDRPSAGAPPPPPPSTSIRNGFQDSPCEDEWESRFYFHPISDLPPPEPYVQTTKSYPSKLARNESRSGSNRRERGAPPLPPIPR
UniProt Q9P206: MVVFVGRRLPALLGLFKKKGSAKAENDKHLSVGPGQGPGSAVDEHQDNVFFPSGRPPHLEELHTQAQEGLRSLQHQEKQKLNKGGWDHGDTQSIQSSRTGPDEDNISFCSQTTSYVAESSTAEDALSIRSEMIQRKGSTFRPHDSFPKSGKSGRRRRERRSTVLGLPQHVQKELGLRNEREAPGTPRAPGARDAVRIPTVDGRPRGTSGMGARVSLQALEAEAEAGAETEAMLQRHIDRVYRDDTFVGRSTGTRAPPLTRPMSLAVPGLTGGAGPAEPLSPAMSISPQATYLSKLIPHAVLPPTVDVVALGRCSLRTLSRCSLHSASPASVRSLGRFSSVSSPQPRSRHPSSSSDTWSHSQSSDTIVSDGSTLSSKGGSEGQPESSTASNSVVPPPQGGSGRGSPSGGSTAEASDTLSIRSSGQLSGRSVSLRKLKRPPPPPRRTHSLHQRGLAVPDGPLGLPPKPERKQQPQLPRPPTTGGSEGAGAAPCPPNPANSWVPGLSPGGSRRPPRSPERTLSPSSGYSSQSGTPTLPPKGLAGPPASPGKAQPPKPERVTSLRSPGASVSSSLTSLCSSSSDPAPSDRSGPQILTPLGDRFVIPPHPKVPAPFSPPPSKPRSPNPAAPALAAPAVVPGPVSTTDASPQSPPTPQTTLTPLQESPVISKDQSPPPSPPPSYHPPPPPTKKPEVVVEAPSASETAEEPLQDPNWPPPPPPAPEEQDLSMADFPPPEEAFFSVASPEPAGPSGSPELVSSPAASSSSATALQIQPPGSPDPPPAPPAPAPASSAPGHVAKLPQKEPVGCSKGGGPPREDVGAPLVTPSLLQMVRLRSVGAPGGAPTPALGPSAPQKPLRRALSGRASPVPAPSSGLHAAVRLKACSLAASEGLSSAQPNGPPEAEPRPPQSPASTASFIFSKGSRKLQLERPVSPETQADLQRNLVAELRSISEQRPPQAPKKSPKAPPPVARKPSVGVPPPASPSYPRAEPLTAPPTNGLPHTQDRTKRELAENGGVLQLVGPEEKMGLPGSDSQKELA
UniProt O00401: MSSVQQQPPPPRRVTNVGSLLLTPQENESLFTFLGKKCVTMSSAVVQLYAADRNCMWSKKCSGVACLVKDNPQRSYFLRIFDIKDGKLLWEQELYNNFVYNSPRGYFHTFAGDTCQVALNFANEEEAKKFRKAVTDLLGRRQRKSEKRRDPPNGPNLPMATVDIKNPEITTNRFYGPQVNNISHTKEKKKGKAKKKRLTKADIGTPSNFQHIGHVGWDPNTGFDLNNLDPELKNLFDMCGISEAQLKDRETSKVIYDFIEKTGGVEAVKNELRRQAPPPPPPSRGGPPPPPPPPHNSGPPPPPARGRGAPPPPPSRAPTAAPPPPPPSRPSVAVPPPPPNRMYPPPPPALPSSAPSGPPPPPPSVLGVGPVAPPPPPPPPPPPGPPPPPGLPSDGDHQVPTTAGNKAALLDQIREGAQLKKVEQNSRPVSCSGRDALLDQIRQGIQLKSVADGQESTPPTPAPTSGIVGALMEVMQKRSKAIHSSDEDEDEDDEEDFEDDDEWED
UniProt Q9UQB8: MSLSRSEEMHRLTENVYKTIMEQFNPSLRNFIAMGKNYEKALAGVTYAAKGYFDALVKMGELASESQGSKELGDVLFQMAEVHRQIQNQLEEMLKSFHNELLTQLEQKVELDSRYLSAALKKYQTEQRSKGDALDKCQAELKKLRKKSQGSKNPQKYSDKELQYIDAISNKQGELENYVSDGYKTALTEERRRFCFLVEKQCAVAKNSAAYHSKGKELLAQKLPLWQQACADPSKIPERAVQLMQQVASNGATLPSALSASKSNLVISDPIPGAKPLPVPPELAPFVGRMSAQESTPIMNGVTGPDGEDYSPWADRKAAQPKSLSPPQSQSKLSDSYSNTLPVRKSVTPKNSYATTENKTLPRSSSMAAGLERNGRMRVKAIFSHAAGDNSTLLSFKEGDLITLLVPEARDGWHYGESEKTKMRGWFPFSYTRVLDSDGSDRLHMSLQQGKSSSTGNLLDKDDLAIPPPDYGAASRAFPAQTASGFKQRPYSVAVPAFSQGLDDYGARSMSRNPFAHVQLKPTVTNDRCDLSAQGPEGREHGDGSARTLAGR
UniProt Q14155: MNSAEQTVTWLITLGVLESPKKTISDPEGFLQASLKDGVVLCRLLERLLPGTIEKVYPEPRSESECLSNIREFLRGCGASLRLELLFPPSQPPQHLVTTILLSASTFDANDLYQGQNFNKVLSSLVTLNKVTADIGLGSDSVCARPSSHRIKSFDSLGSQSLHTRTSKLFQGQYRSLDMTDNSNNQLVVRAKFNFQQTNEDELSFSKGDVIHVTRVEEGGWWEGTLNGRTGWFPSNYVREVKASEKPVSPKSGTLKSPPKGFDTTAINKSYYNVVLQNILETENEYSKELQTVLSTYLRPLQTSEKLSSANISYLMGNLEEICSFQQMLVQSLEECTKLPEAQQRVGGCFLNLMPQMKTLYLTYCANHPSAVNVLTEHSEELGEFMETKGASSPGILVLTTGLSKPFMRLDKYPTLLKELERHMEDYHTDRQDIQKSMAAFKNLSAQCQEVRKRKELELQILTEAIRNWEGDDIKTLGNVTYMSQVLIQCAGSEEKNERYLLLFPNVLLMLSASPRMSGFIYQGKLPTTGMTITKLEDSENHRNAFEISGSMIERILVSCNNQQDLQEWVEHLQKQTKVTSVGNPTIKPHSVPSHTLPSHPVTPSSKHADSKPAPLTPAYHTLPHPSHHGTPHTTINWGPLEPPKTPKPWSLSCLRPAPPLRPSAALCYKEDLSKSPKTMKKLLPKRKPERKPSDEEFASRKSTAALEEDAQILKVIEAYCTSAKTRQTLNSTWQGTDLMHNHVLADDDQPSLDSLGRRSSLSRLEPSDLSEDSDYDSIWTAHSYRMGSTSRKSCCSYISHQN
UniProt Q12774: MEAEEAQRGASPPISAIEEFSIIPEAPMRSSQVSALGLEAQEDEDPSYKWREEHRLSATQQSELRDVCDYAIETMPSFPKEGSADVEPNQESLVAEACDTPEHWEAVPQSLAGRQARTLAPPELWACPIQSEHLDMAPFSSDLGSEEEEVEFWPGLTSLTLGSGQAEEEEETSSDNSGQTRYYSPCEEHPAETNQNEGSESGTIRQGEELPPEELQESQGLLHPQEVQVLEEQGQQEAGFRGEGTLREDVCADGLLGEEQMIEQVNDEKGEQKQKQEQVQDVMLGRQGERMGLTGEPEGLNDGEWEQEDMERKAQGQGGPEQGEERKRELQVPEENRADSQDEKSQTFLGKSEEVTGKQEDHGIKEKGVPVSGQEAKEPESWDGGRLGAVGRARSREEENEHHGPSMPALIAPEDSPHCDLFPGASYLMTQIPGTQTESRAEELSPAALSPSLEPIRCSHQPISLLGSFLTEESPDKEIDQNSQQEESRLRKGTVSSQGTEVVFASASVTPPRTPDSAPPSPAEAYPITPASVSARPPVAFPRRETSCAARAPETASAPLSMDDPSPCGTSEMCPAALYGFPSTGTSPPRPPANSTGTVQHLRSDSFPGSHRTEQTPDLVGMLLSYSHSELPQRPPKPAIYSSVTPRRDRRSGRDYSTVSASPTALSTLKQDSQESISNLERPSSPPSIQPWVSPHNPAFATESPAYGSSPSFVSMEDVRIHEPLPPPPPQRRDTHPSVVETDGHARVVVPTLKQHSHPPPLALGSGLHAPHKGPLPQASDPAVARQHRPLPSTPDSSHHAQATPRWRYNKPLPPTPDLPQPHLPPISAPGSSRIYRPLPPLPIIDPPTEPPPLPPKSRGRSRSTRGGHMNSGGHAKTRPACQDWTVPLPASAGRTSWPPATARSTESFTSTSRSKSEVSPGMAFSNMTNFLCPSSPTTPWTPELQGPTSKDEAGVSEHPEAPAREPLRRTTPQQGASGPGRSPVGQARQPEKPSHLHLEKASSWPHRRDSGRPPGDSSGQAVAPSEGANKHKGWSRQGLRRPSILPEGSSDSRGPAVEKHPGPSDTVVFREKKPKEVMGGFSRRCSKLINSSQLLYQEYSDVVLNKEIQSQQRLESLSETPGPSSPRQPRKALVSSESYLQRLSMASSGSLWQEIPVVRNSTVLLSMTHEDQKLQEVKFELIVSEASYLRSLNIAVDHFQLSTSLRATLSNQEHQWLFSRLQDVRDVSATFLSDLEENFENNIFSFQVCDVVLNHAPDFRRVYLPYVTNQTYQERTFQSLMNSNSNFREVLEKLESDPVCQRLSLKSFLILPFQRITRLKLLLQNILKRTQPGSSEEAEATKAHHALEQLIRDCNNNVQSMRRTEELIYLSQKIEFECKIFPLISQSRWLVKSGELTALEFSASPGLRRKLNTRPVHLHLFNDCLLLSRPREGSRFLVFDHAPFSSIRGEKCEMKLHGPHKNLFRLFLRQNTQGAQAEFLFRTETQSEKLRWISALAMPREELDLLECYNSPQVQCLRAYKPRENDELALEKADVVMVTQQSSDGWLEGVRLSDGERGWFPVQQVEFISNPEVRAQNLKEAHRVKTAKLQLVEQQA

Molecule: DIAPH3 (from UniProt Q9NSV4 1-1193)
- binding [1]: binds

Molecule: DNMBP (from UniProt Q6XZF7 1-1577)
- binding [2]: binds

Molecule: WIPF1 (from UniProt O43516 1-503)
- binding [3]: binds

Molecule: KIAA1522 (endogenous, podocytes) (from UniProt Q9P206 1-1035)
- binding [3]: binds

Molecule: WASL (from UniProt O00401 1-505)
- binding [3]: binds

Molecule: IRSp53 (endogenous, podocytes) (from UniProt Q9UQB8 1-552)
- binding [3]: binds

Molecule: ARHGEF7 (from UniProt Q14155 1-803)
- binding [2]: binds

Molecule: DOCK11 (from UniProt Q5JSL3 1-2073)
- binding [2]: binds

Molecule: ROCK2 (from UniProt O75116 1-1388)
- binding [1]: binds

Molecule: DOCK9 (from UniProt Q9BZ29 1-2069)
- binding [2]: binds

Molecule: ARHGEF5 (from UniProt Q12774 1-1597)
- binding [4]: binds

B1: ARHGEF18 (protein, UniProt Q6ZSZ5 1-1361)
chain: MGDDQEDDFPRRLSESMEDLSLDLGALQGSEYLQDLGLGAPSHSQPGETPDSRPTGEEPGRDSLFSSLAGSQDLSRRRSWERSRSCSESWRRLSLDASAVDEEPCLPRTLASLALNLPGGGLKTWTQGCLSGGGTPAESPGKECDSPKKRGRSRSVPVSFYEIRSPEISPGLEVPTPPVQGLEPPVLECMEKDHVEPDHVLIVQQVLQELRQYHGARQRACMSASPGGAHSNLTWFEFLSESEDGAGKNEKSDKSTSVKRRLSCLRSRVTRQKEKGKSPAHLKDKGQDARERRECVNGHQLLQGTFSGPSSCPLCGKPFLSSASLKEHPRGTLLSDGSPALSRNVGMTVSQKGGPQPTPSPAGPGTQLGPITGEMDEADSAFLKFKQTADDSLSLTSPNTESIFVEDPYTASLRSEIESDGHEFEAESWSLAVDAAYAKKQKREVVKRQDVLYELMQTEVHHVRTLKIMLKVYSRALQEELQFSSKAIGRLFPCADDLLETHSHFLARLKERRQESLEEGSDRNYVIQKIGDLLVQQFSGENGERMKEKYGVFCSGHNEAVSHYKLLLQQNKKFQNLIKKIGNFSIVRRLGVQECILLVTQRITKYPVLVERIIQNTEAGTEDYEDLTQALNLIKDIISQVDAKVSECEKGQRLREIAGKMDLKSSSKLKNGLTFRKEDMLQRQLHLEGMLCWKTTSGRLKDILAILLTDVLLLLQEKDQKYVFASVDSKPPVISLQKLIVREVANEEKAMFLISASLQGPEMYEIYTSSKEDRNAWMAHIQRAVESCPDEEEGPFSLPEEERKVVEARATRLRDFQERLSMKDQLIAQSLLEKQQIYLEMAEMGGLEDLPQPRGLFRGGDPSETLQGELILKSAMSEIEGIQSLICRQLGSANGQAEDGGSSTGPPRRAETFAGYDCTNSPTKNGSFKKKVSSTDPRPRDWRGPPNSPDLKLSDSDIPGSSEESPQVVEAPGTESDPRLPTVLESELVQRIQTLSQLLLNLQAVIAHQDSYVETQRAAIQEREKQFRLQSTRGNLLLEQERQRNFEKQREERAALEKLQSQLRHEQQRWERERQWQHQELERAGARLQEREGEARQLRERLEQERAELERQRQAYQHDLERLREAQRAVERERERLELLRRLKKQNTAPGALPPDTLAEAQPPSHPPSFNGEGLEGPRVSMLPSGVGPEYAERPEVARRDSAPTENRLAKSDVPIQLLSATNQFQRQAAVQQQIPTKLAASTKGGKDKGGKSRGSQRWESSASFDLKQQLLLNKLMGKDESTSRNRRSLSPILPGRHSPAPPPDPGFPAPSPPPADSPSEGFSLKAGGTALLPGPPAPSPLPATPLSAKEDASKEDVIFF
- binding [5]: binds

B2: VAV2 (protein, UniProt P52735 1-878)
chain: MEQWRQCGRWLIDCKVLPPNHRVVWPSAVVFDLAQALRDGVLLCQLLHNLSPGSIDLKDINFRPQMSQFLCLKNIRTFLKVCHDKFGLRNSELFDPFDLFDVRDFGKVISAVSRLSLHSIAQNKGIRPFPSEETTENDDDVYRSLEELADEHDLGEDIYDCVPCEDGGDDIYEDIIKVEVQQPMIRYMQKMGMTEDDKRNCCLLEIQETEAKYYRTLEDIEKNYMSPLRLVLSPADMAAVFINLEDLIKVHHSFLRAIDVSVMVGGSTLAKVFLDFKERLLIYGEYCSHMEHAQNTLNQLLASREDFRQKVEECTLKVQDGKFKLQDLLVVPMQRVLKYHLLLKELLSHSAERPERQQLKEALEAMQDLAMYINEVKRDKETLRKISEFQSSIENLQVKLEEFGRPKIDGELKVRSIVNHTKQDRYLFLFDKVVIVCKRKGYSYELKEIIELLFHKMTDDPMNNKDVKKSHGKMWSYGFYLIHLQGKQGFQFFCKTEDMKRKWMEQFEMAMSNIKPDKANANHHSFQMYTFDKTTNCKACKMFLRGTFYQGYMCTKCGVGAHKECLEVIPPCKFTSPADLDASGAGPGPKMVAMQNYHGNPAPPGKPVLTFQTGDVLELLRGDPESPWWEGRLVQTRKSGYFPSSSVKPCPVDGRPPISRPPSREIDYTAYPWFAGNMERQQTDNLLKSHASGTYLIRERPAEAERFAISIKFNDEVKHIKVVEKDNWIHITEAKKFDSLLELVEYYQCHSLKESFKQLDTTLKYPYKSRERSASRASSRSPASCASYNFSFLSPQGLSFASQGPSAPFWSVFTPRVIGTAVARYNFAARDMRELSLREGDVVRIYSRIGGDQGWWKGETNGRIGWFPSTYVEEEGIQ
- binding [5]: binds

B3: DIAPH2 (protein, UniProt O60879 1-1101)
chain: MEQPGAAASGAGGGSEEPGGGRSNKRSAGNRAANEEETKNKPKLNIQIKTLADDVRDRITSFRKSTVKKEKPLIQHPIDSQVAMSEFPAAQPLYDERSLNLSEKEVLDLFEKMMEDMNLNEEKKAPLRNKDFTTKREMVVQYISATAKSGGLKNSKHECTLSSQEYVHELRSGISDEKLLNCLESLRVSLTSNPVSWVNNFGHEGLGLLLDELEKLLDKKQQENIDKKNQYKLIQCLKAFMNNKFGLQRILGDERSLLLLARAIDPKQPNMMTEIVKILSAICIVGEENILDKLLGAITTAAERNNRERFSPIVEGLENQEALQLQVACMQFINALVTSPYELDFRIHLRNEFLRSGLKTMLPDLKEKENDELDIQLKVFDENKEDDLTELSHRLNDIRAEMDDMNEVYHLLYNMLKDTAAENYFLSILQHFLLIRNDYYIRPQYYKIIEECVSQIVLHCSGMDPDFKYRQRLDIDLTHLIDSCVNKAKVEESEQKAAEFSKKFDEEFTARQEAQAELQKRDEKIKELEAEIQQLRTQAQVLSSSSGIPGPPAAPPLPGVGPPPPPPAPPLPGGAPLPPPPPPLPGMMGIPPPPPPPLLFGGPPPPPPLGGVPPPPGISLNLPYGMKQKKMYKPEVSMKRINWSKIEPTELSENCFWLRVKEDKFENPDLFAKLALNFATQIKVQKNAEALEEKKTGPTKKKVKELRILDPKTAQNLSIFLGSYRMPYEDIRNVILEVNEDMLSEALIQNLVKHLPEQKILNELAELKNEYDDLCEPEQFGVVMSSVKMLQPRLSSILFKLTFEEHINNIKPSIIAVTLACEELKKSESFNRLLELVLLVGNYMNSGSRNAQSLGFKINFLCKIRDTKSADQKTTLLHFIADICEEKYRDILKFPEELEHVESASKVSAQILKSNLASMEQQIVHLERDIKKFPQAENQHDKFVEKMTSFTKTAREQYEKLSTMHNNMMKLYENLGEYFIFDSKTVSIEEFFGDLNNFRTLFLEAVRENNKRREMEEKTRRAKLAKEKAEQEKLERQKKKKQLIDINKEGDETGVMDNLLEALQSGAAFRDRRKRIPRNPDNRRVPLERSRSRHNGAISSK
- binding [6]: binds

B4: ARHGEF26 (protein, UniProt Q96DR7 1-871)
chain: MDGESEVDFSSNSITPLWRRRSIPQPHQVLGRSKPRPQSYQSPNGLLITDFPVEDGGTLLAAQIPAQVPTASDSRTVHRSPLLLGAQRRAVANGGTASPEYRAASPRLRRPKSPKLPKAVPGGSPKSPANGAVTLPAPPPPPVLRPPRTPNAPAPCTPEEDLTGLTASPVPSPTANGLAANNDSPGSGSQSGRKAKDPERGLFPGPQKSSSEQKLPLQRLPSQENELLENPSVVLSTNSPAALKVGKQQIIPKSLASEIKISKSNNQNVEPHKRLLKVRSMVEGLGGPLGHAGEESEVDNDVDSPGSLRRGLRSTSYRRAVVSGFDFDSPTSSKKKNRMSQPVLKVVMEDKEKFSSLGRIKKKMLKGQGTFDGEENAVLYQNYKEKALDIDSDEESEPKEQKSDEKIVIHHKPLRSTWSQLSAVKRKGLSQTVSQEERKRQEAIFEVISSEHSYLLSLEILIRMFKNSKELSDTMTKTERHHLFSNITDVCEASKKFFIELEARHQNNIFIDDISDIVEKHTASTFDPYVKYCTNEVYQQRTLQKLLATNPSFKEVLSRIESHEDCRNLPMISFLILPMQRVTRLPLLMDTICQKTPKDSPKYEVCKRALKEVSKLVRLCNEGARKMERTEMMYTINSQLEFKIKPFPLVSSSRWLVKRGELTAYVEDTVLFSRRTSKQQVYFFLFNDVLIITKKKSEESYNVNDYSLRDQLLVESCDNEELNSSPGKNSSTMLYSRQSSASHLFTLTVLSNHANEKVEMLLGAETQSERARWITALGHSSGKPPADRTSLTQVEIVRSFTAKQPDELSLQVADVVLIYQRVSDGWYEGERLRDGERGWFPMECAKEITCQATIDKNVERMGRLLGLETNV
- binding [7]: binds
- binding [5]: binds

— paper PMC12644026
